Measured data: PubChem BioAssay AID1508597 (Cure First, 2020)

Screen: 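Survival screen with siRNA in ovarian cancer cells derived from patients, with or without rucaparib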 (primary screen)
System: human ovarian carcinoma lines grown from tumours: OCI-P5x (papillary serous) and OCI-C5x (clear cell)
Knock-down reagent: siRNA pool against human genes, 1.25 pmol siRNA per well
Timing: 72 h or 96 h, depending on the cell culture
Challenge: rucaparib 20 µM (about IC30) or vehicle, present until read-out
Read-out: 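ATP luminescence measured at 72 or 96 h according to the culture, then normalised and expressed as percent viability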
Direction: viability, normalised: higher = more viable cells remaining
Call rule: 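a well counts as a hit if its normalised viability is under 80 percent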
Meaning of the calls: active = viability under 80%; inactive = viability 80% or more
This is a random part of about 2,100 deposited reagents. 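Calls flag viability under 80% in either arm, not effects specific to rucaparib; the reference for percent is not stated.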 A number with no mark means an inactive call. Reagent sequences are not shown. Not stated in the record: the 100% reference.

no.	target gene	rucaparib or vehicle	cell line	technical replicate	viability, normalised (%)
1	USP1	Rucaparib	OCI-C5x (clear cell)	1	42 (active)
2	USP1	Rucaparib	OCI-C5x (clear cell)	2	47.5 (active)
3	USP1	Rucaparib	OCI-C5x (clear cell)	3	43.8 (active)
4	USP1	Rucaparib	OCI-P5x (serous)	1	48.7 (active)
5	USP1	Rucaparib	OCI-P5x (serous)	2	58.4 (active)
6	USP1	Rucaparib	OCI-P5x (serous)	3	41.5 (active)
7	USP1	Vehicle	OCI-C5x (clear cell)	1	46.8 (active)
8	USP1	Vehicle	OCI-C5x (clear cell)	2	40.2 (active)
9	USP1	Vehicle	OCI-C5x (clear cell)	3	40.9 (active)
10	USP1	Vehicle	OCI-P5x (serous)	1	47.6 (active)
11	USP1	Vehicle	OCI-P5x (serous)	2	54.5 (active)
12	USP1	Vehicle	OCI-P5x (serous)	3	38.2 (active)
13	DDX55	Rucaparib	OCI-C5x (clear cell)	1	52.1 (active)
14	DDX55	Rucaparib	OCI-C5x (clear cell)	2	57.6 (active)
15	DDX55	Rucaparib	OCI-C5x (clear cell)	3	41.1 (active)
16	DDX55	Rucaparib	OCI-P5x (serous)	1	71.2 (active)
17	DDX55	Rucaparib	OCI-P5x (serous)	2	63.1 (active)
18	DDX55	Rucaparib	OCI-P5x (serous)	3	77.4 (active)
19	DDX55	Vehicle	OCI-C5x (clear cell)	1	34.4 (active)
20	DDX55	Vehicle	OCI-C5x (clear cell)	2	52.5 (active)
21	DDX55	Vehicle	OCI-C5x (clear cell)	3	32.1 (active)
22	DDX55	Vehicle	OCI-P5x (serous)	1	71 (active)
23	DDX55	Vehicle	OCI-P5x (serous)	2	66.7 (active)
24	DDX55	Vehicle	OCI-P5x (serous)	3	87.8

Next part (6 carried over from the part before).
no.	target gene	rucaparib or vehicle	cell line	technical replicate	viability, normalised (%)
19	DDX55	Vehicle	OCI-C5x (clear cell)	1	34.4 (active)
20	DDX55	Vehicle	OCI-C5x (clear cell)	2	52.5 (active)
21	DDX55	Vehicle	OCI-C5x (clear cell)	3	32.1 (active)
22	DDX55	Vehicle	OCI-P5x (serous)	1	71 (active)
23	DDX55	Vehicle	OCI-P5x (serous)	2	66.7 (active)
24	DDX55	Vehicle	OCI-P5x (serous)	3	87.8
25	ZCCHC13	Rucaparib	OCI-C5x (clear cell)	1	73.5 (active)
26	ZCCHC13	Rucaparib	OCI-C5x (clear cell)	2	61.2 (active)
27	ZCCHC13	Rucaparib	OCI-C5x (clear cell)	3	56.3 (active)
28	ZCCHC13	Rucaparib	OCI-P5x (serous)	1	69.4 (active)
29	ZCCHC13	Rucaparib	OCI-P5x (serous)	2	54 (active)
30	ZCCHC13	Rucaparib	OCI-P5x (serous)	3	70.2 (active)
31	ZCCHC13	Vehicle	OCI-C5x (clear cell)	1	62 (active)
32	ZCCHC13	Vehicle	OCI-C5x (clear cell)	2	67 (active)
33	ZCCHC13	Vehicle	OCI-C5x (clear cell)	3	33.5 (active)
34	ZCCHC13	Vehicle	OCI-P5x (serous)	1	93.1
35	ZCCHC13	Vehicle	OCI-P5x (serous)	2	77.1 (active)
36	ZCCHC13	Vehicle	OCI-P5x (serous)	3	83
37	AGO3	Rucaparib	OCI-C5x (clear cell)	1	50.2 (active)
38	AGO3	Rucaparib	OCI-C5x (clear cell)	2	59.5 (active)
39	AGO3	Rucaparib	OCI-C5x (clear cell)	3	37.8 (active)
40	AGO3	Rucaparib	OCI-P5x (serous)	1	67.5 (active)
41	AGO3	Rucaparib	OCI-P5x (serous)	2	60.8 (active)
42	AGO3	Rucaparib	OCI-P5x (serous)	3	64.9 (active)
43	AGO3	Vehicle	OCI-C5x (clear cell)	1	46.9 (active)
44	AGO3	Vehicle	OCI-C5x (clear cell)	2	47 (active)
45	AGO3	Vehicle	OCI-C5x (clear cell)	3	57.8 (active)
46	AGO3	Vehicle	OCI-P5x (serous)	1	65.7 (active)
47	AGO3	Vehicle	OCI-P5x (serous)	2	67.9 (active)
48	AGO3	Vehicle	OCI-P5x (serous)	3	77 (active)
